Results taken from paper PMC8210600.
Results are given in words; binding and its absence hold for the method and conditions named. In cells and extracts the contact can be indirect. Some entries that bind do so weakly or less than the wild type.

Chains of the proteins cited; added tags and fusions are not shown.
UniProt Q15717: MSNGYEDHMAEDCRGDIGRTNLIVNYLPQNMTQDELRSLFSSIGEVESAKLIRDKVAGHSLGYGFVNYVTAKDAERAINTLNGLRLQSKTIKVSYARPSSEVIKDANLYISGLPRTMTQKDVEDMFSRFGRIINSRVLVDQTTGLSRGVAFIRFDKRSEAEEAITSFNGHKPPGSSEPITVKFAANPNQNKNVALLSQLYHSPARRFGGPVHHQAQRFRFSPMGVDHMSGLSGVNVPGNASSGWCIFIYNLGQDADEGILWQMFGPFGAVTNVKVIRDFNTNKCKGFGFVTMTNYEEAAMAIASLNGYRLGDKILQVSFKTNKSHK
UniProt Q9Y297: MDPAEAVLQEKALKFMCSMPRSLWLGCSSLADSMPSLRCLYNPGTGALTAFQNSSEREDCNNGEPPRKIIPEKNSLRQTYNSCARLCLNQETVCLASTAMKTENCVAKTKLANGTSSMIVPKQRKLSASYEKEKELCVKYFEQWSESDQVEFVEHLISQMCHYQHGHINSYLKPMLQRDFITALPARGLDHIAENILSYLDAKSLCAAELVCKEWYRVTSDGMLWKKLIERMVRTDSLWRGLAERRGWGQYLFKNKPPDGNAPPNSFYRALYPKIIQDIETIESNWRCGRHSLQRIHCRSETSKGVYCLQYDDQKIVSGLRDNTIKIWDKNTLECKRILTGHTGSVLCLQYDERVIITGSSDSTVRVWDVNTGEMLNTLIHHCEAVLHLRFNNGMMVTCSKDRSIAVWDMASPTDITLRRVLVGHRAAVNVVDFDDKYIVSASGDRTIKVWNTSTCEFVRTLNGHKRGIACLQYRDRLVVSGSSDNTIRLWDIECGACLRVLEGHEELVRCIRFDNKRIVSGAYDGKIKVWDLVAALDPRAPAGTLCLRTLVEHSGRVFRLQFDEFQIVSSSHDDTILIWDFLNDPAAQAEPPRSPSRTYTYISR

Target: human antigen R (HuR) (human (endogenous in HCT116)) (UniProt Q15717)
Assay: co-IP; endogenous proteins of HCT116 cells transfected with N.C or circRHOBTB3 overexpression plasmid; anti-HuR and anti-βTrCP antibodies, Protein-A/G MagBeads, Western blotting

binding: binds
Substance: E3 ubiquitin ligase β-Trcp1 (from UniProt Q9Y297 1-605)
